Results are given in words; binding and its absence hold for the method and conditions named. In cells and extracts the contact can be indirect. Some binding calls cover weakened binding; strength is not graded here. For part of these data: Sequences can lack the tags named with a protein.
Key:
[1] = molecular target: T1, FLAG-tagged ARMC12, wild type (human) (UniProt Q5T9G4); assay: co-IP; SH-SY5Y cells cotransfected with FLAG-tagged ARMC12 (wild type, truncates or mutant) and HA-tagged RBBP4 (wild type, truncates or mutant); FLAG and HA antibodies, western blot
T1 sequence: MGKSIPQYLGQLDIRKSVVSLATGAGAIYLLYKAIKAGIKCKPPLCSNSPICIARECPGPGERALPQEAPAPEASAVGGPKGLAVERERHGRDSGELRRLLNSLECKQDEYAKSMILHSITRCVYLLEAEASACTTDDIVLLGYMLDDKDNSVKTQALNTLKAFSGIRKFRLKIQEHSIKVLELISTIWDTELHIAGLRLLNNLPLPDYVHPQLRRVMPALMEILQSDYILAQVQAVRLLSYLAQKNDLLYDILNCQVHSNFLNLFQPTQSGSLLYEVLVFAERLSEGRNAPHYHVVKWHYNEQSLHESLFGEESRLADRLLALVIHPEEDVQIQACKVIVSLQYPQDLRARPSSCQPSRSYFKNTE

By UniProt entry, the sequences of proteins in these tests, tags left out.
UniProt Q09028: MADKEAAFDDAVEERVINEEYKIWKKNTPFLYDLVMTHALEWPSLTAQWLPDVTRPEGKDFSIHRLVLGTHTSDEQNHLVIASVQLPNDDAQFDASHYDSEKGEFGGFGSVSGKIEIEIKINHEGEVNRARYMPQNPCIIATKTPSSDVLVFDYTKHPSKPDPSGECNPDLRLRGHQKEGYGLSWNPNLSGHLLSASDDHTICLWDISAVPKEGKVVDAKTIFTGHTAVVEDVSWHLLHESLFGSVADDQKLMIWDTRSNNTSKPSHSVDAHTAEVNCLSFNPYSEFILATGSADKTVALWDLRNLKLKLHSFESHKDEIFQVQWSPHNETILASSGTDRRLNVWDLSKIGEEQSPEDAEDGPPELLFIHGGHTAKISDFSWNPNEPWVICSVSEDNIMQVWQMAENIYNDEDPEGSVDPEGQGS
UniProt Q15022: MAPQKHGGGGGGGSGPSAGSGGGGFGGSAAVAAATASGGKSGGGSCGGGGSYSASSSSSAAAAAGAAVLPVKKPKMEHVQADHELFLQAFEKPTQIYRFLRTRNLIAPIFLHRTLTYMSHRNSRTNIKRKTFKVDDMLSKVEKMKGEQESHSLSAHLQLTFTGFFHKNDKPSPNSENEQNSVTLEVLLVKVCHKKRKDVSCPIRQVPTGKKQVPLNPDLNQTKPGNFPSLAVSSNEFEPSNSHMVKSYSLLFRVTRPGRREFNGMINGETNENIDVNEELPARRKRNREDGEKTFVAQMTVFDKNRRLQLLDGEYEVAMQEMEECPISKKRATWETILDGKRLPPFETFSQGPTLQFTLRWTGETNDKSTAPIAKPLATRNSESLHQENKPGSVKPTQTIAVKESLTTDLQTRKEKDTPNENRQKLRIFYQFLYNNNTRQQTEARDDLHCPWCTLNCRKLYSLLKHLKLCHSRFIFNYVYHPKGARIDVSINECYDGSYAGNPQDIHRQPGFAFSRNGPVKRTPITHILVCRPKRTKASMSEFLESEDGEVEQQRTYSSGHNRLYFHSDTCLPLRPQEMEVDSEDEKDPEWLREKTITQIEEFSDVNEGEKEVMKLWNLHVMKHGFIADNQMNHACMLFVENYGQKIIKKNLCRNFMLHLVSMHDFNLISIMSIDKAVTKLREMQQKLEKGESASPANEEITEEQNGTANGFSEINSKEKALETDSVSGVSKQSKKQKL

[2] = molecular target: T2, ARMC12 in pBiFC-VN173, wild type (human) (UniProt Q5T9G4); assay: split reporter; BiFC: pBiFC-VN173-ARMC12 and pBiFC-VC155-RBBP4 cotransfected into SH-SY5Y cells for 24 h, grown a further 10 h at 37 C, confocal microscopy
T2 sequence: T1 sequence

[3] = molecular target: T3, armadillo repeat containing 12 (ARMC12), endogenous (human (endogenous in BE(2)-C and IMR32)) (UniProt Q5T9G4); assay: co-IP; endogenous proteins in BE(2)-C and IMR32 cells, 10 ug antibody, western blot, IgG as negative control; also cells stably transfected with sh-Scb, sh-ARMC12 #1, sh-RBBP4 #2, sh-EZH2 #1 or sh-SUZ12 #1
T3 sequence: T1 sequence

[4] = molecular target: T4, ARMC12, stably overexpressed in SH-SY5Y and SK-N-SH cells (human) (UniProt Q5T9G4); assay: co-IP; SH-SY5Y and SK-N-SH cells stably transfected with empty vector (mock) or ARMC12; western blot
T4 sequence: T1 sequence

Substance | binding [1] | binding [2] | binding [3] | binding [4]
HA-tagged RBBP4, wild type (from UniProt Q09028 1-425) | binds |  |  | 
RBBP4 in pBiFC-VC155, wild type (from UniProt Q09028 1-425) |  | binds |  | 
retinoblastoma binding protein 4 (RBBP4), endogenous (from UniProt Q09028 1-425) |  |  | binds | binds
suppressor of zeste 12 (SUZ12), endogenous (from UniProt Q15022 1-739) |  |  | binds | binds
